In article doi:10.1101/2023.12.08.570815:
Residue numbers refer to the chain shown, from its start. Where two headings read alike, the source gives them in different places. These are yes or no findings as the source states them, for the method shown. In cells and extracts the contact can be indirect. A yes stands for co-enrichment or nearness to the bait. Other partners may have been found. For some assays here: Sequences can lack the tags named with a protein. Values belong to the molecule of their own block, whether it stands above or below them.

Sequences of proteins named here, by UniProt entry; tags and fusion partners are left off. Residues count along the entry.
UniProt Q9C0C7: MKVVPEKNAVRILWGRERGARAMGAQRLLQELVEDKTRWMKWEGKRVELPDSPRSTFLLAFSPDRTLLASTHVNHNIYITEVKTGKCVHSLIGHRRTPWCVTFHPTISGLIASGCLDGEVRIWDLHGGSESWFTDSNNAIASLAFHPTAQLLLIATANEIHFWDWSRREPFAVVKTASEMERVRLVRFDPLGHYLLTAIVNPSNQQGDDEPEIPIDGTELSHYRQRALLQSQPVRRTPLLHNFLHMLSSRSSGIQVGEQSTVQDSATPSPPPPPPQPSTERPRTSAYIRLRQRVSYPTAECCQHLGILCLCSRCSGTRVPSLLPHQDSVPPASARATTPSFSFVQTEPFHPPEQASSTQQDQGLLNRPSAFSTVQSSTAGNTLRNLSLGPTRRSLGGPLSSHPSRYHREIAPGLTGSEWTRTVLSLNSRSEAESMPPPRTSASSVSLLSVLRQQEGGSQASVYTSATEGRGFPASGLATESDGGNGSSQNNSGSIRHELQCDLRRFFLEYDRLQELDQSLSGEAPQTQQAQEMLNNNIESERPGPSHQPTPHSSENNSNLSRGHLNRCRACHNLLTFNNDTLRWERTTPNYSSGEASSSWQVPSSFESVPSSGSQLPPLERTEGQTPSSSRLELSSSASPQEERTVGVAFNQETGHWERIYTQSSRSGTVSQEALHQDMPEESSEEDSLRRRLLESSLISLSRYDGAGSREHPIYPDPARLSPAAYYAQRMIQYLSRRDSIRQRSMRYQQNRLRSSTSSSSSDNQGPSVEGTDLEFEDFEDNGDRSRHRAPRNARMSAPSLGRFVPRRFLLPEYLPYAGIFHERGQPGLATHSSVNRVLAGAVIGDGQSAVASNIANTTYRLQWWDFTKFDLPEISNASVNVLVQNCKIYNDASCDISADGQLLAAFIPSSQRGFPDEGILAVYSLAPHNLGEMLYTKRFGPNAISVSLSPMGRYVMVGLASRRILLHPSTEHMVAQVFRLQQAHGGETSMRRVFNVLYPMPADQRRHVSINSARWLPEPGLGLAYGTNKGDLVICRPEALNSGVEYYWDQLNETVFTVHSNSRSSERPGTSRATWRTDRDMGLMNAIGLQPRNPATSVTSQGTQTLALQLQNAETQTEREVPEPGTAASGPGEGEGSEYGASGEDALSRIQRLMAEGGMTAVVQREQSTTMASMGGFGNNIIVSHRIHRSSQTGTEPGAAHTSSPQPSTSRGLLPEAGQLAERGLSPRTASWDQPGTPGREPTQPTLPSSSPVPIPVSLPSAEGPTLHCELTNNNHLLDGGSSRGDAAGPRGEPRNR
UniProt P38646, residues 47-679: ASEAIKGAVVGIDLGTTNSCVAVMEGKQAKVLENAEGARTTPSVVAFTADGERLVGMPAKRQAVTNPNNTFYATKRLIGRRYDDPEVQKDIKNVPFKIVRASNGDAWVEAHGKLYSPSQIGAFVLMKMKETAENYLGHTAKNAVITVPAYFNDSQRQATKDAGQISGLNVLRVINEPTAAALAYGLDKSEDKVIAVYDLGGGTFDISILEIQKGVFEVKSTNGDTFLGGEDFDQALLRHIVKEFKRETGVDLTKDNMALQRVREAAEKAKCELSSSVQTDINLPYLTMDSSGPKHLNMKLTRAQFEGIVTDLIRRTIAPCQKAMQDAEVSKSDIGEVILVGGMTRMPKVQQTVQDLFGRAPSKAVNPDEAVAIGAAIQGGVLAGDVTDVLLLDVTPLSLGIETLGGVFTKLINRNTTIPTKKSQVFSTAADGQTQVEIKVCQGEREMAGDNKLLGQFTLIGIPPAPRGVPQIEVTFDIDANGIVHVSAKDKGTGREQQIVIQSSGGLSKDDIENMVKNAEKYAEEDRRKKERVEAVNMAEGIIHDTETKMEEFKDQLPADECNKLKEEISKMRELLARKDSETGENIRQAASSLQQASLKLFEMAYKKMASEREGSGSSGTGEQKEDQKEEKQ
UniProt P34932: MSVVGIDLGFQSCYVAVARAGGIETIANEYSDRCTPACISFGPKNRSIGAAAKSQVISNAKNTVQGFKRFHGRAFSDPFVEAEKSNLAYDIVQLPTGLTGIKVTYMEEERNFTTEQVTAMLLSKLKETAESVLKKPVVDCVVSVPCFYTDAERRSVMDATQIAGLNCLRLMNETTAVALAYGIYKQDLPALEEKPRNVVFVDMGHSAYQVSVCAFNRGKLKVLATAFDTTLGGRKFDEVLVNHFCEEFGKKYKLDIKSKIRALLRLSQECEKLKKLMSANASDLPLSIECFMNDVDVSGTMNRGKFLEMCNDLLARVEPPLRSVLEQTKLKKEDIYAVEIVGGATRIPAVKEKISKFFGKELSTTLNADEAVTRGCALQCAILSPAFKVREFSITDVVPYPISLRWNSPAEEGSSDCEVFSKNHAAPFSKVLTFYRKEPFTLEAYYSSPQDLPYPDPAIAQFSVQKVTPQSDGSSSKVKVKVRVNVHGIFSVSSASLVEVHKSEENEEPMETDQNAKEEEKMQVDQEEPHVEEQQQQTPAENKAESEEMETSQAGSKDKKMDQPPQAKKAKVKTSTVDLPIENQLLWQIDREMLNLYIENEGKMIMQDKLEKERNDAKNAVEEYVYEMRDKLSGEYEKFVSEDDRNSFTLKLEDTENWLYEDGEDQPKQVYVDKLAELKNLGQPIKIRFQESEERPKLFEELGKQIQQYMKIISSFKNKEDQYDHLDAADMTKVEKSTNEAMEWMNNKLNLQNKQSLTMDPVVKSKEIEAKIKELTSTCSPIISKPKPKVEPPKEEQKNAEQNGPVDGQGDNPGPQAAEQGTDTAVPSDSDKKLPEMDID

Key:
Experiment in all cases: affinity purification with mass spectrometry
[1] = biological target: SHA-tagged BAG2 wild type (human (HEK293T cDNA)) (UniProt O95816)
[2] = biological target: T1, SHA-tagged BAG2 I160A (human (HEK293T cDNA)) (UniProt O95816)
T1 sequence: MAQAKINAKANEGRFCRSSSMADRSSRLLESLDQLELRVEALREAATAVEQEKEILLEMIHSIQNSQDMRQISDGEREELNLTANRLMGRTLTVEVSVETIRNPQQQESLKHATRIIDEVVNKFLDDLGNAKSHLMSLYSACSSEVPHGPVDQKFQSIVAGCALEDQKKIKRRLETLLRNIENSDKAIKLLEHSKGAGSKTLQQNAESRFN

[3] = biological target: Activating molecule in BECN1-regulated autophagy protein 1 (AMBRA1), endogenous (human (endogenous in HeLa)) (UniProt Q9C0C7)
[4] = biological target: SHA-tagged BAG2 wild type (human (HEK293T cDNA)) (UniProt O95816); remark: listed apart in the source
[5] = biological target: T2, SHA-tagged BAG2 S31E (human (HEK293T cDNA)) (UniProt O95816)
T2 sequence: T1 sequence with S31E, A160I

[6] = biological target: T1, SHA-tagged BAG2 I160A (human (HEK293T cDNA)); remark: listed apart in the source

binding [1]: binds
binding [2]: binds
Molecule: HSPA9, endogenous (from UniProt P38646 47-679)

binding [3]: binds
Molecule: Bcl-2-associated athanogene 2 (BAG2), endogenous (from UniProt O95816 1-211)

binding [1]: binds
binding [2]: binds
Molecule: HSPA4, endogenous (from UniProt P34932 1-840)

binding [4]: binds
binding [5]: binds
binding [6]: binds
B1: chloride ion channel CLCC1, endogenous (protein, UniProt Q96S66 19-551)
chain: HDDDWIDPTDMLNYDAASGTMRKSQAKYGISGEKDVSPDLSCADEISECYHKLDSLTYKIDECEKKKREDYESQSNPVFRRYLNKILIEAGKLGLPDENKGDMHYDAEIILKRETLLEIQKFLNGEDWKPGALDDALSDILINFKFHDFETWKWRFEDSFGVDPYNVLMVLLCLLCIVVLVATELWTYVRWYTQLRRVLIISFLFSLGWNWMYLYKLAFAQHQAEVAKMEPLNNVCAKKMDWTGSIWEWFRSSWTYKDDPCQKYYELLLVNPIWLVPPTKALAVTFTTFVTEPLKHIGKGTGEFIKALMKEIPALLHLPVLIIMALAILSFCYGAGKSVHVLRHIGGPESEPPQALRPRDRRRQEEIDYRPDGGAGDADFHYRGQMGPTEQGPYAKTYEGRREILRERDVDLRFQTGNKSPEVLRAFDVPDAEAREHPTVVPSHKSPVLDTKPKETGGILGEGTPKESSTESSQSAKPVSGQDTSGNTEGSPAAEKAQLKSEAAGSPDQGSTYSPARGVAGPRGQDPVSSPCG
